Reference: patent US20090247646A1, “USE OF RESVERATROL AND DERIVATIVES THEREOF FOR PROMOTING THE WELLNESS STATE IN MAMMALS” (priority 2006, published 2009)
The source gives many values for each of these; only a part stands here.

System: gene expression in heart tissue
Test: Genome-wide gene expression in heart tissue of old mice fed a resveratrol-supplemented diet (Affymetrix Mouse Genome 430 2.0 array)
Format: in vivo

Measured: Effect of resveratrol on changeing gene expression from old to young profile

Oc1ccc(/C=C/c2cc(O)cc(O)c2)cc1 [resveratrol, 3,4′,5-Trihydroxy-trans-stilbene]
60-70%: 1436590_at protein phosphatase 1, regulatory (inhibitor) subunit 3B | 1437901_a_at vacuolar protein sorting 41 (yeast) | 1448525_a_at BCL2/adenovirus E1B 19 kDa-interacting protein 3-like
>100%: 1436014_a_at RUN and SH3 domain containing 1 | 1436173_at deleted in liver cancer 1 | 1436348_at Mus musculus transcribed sequences | 1436420_a_at importin 4 | 1436839_at coactosin-like 1 (Dictyostelium) | 1437513_a_at tumor differentially expressed 2 | 1437729_at ribosomal protein L27a | 1437875_at bicaudal D homolog 2 (Drosophila) | 1438008_at golgi associated, gamma adaptin ear containing, ARF binding protein 3 | 1438545_at solute carrier family 25 (mitochondrial carrier; adenine nucleotide translocator), member 5 | 1438673_at solute carrier family 4, sodium bicarbonate cotransporter, member 7 | 1439478_at mitochondrial acyl-CoA thioesterase 1 [BLAST] | 1439530_a_at Mus musculus similar to RelA-associated inhibitor (Inhibitor of ASPP protein) (Protein iASPP) (PPP1R13B-like protein) (LOC243869), mRNA | 1439800_at Mus musculus transcribed sequences | 1440870_at PR domain containing 16 | 1448121_at WW domain binding protein 2 | 1448151_at ELAV (embryonic lethal, abnormal vision, Drosophila)-like 1 (Hu antigen R) | 1448189_a_at flightless I homolog (Drosophila) | 1448206_at proteasome (prosome, macropain) subunit, alpha type 2 | 1448230_at ubiquitin specific protease 10 | 1448309_at adaptor-related protein complex 3, mu 1 subunit | 1448330_at glutathione S-transferase, mu 1 | 1448390_a_at dehydrogenase/reductase (SDR family) member 3 | 1448448_a_at choline kinase-like | 1448467_a_at tangerin | 1448503_at myeloid cell leukemia sequence 1 | 1448618_at major vault protein | 1448657_a_at DnaJ (Hsp40) homolog, subfamily B, member 10 | 1448688_at podocalyxin-like | 1448690_at potassium channel, subfamily K, member 1 | 1448691_at expressed sequence AI663987 | 1448747_at F-box only protein 32 | 1448923_at protein kinase, interferon inducible double stranded RNA dependent activator
<60%: 1437863_at butyrylcholinesterase | 1443755_at No description found | 1448183_a_at hypoxia inducible factor 1, alpha subunit | 1448348_at GPI-anchored membrane protein 1 | 1448364_at cyclin G2 | 1448541_at kinesin 2
90-100%: 1436809_a_at spindlin | 1437879_at Mus musculus similar to potassium channel regulator 1 (LOC380959), mRNA | 1438040_a_at tumor rejection antigen gp96 | 1448568_a_at solute carrier family 20, member 1 | 1448625_at golgi autoantigen, golgin subfamily a, 2 | 1448700_at G0/G1 switch gene 2 | 1448791_at sorting nexin 5
70-80%: 1438368_a_at matrin 3 | 1439214_a_at apoptosis inhibitor 5 | 1439811_at 5-methyltetrahydrofolate-homocysteine methyltransferase | 1444112_at Mus musculus LOC381492 (LOC381492), mRNA | 1446812_at Mus musculus transcribed sequence with weak similarity to protein pir: S12207 (M. musculus) S12207 hypothetical protein (B2 element) - mouse | 1448732_at cathepsin B
80-90%: 1437149_at solute carrier family 6 (neurotransmitter transporter, taurine), member 6 [BLAST] | 1437637_at putative homeodomain transcription factor 2 | 1448363_at yes-associated protein | 1448538_a_at DNA segment, Chr 4, Wayne State University 53, expressed | 1448553_at myosin, heavy polypeptide 6, cardiac muscle, alpha | 1448997_at pleckstrin homology, Sec7 and coiled-coil domains 1
